Results are given in words; binding and its absence hold for the method and conditions named. Binding seen in cells or lysates may run through a third protein. A result given as binding can be weak or reduced; the word gives no strength.
Target: T1, Strep-Tactin sepharose-coupled mPifo (immobilized mouse Pitchfork) (mouse) (UniProt Q9D9W1)
T1 sequence: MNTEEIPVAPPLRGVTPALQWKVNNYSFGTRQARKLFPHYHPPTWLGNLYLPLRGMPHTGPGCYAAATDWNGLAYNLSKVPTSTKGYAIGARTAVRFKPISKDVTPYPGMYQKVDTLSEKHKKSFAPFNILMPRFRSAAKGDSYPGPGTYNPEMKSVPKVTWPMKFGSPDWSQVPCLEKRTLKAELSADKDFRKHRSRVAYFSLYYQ
Test: pull-down; Strep-Tactin sepharose-coupled mPifo, time-resolved affinity precipitation from lysates of mouse primary limb bud cultures treated with Shh for 0 to 48 h; also after control siRNA and after Gprasp2 siRNA with HA-hGPRASP2 rescue; immunoblot; only the target purified

endogenous Dynein IC, retrograde motor protein subunit (mouse (endogenous in PLCs))
binding: binds

— publication PMC4763541, “Pitchfork and Gprasp2 Target Smoothened to the Primary Cilium for Hedgehog Pathway Activation” (PLoS ONE, 2016)
